# Test results: PubChem BioAssay AID493014 (National Center for Advancing Translational Sciences (NCATS), 2011)
# In all, about 340,000 compounds went through this assay and about 170 (0.05%) were called active. Inconclusive results, whose numbers are uncertain, are shown with a selection of clear calls. The call rests on the fitted dose curve; in most records, active means well fitted inhibition curve with a large enough effect in the signal ratio, with a control signal flat (not every such curve was filed as active); inconclusive means small, poorly fitted or top-dose-only effect, or effect the other way, or a change in a side signal; inactive means flat fitted curve, though single readings scatter; the % refers to the signal ratio. Potencies beside an inconclusive call are fits to weak or partial responses and may not hold up.
# Test: qHTS Assay to Find Inhibitors of Chronic Active B-Cell Receptor Signaling;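 on activity change, negative = inhibition: plate controls were basal doxycycline-induced cells for no effect and cells given 10 µM MG132 for full effect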
# Conditions: ABC-DLBCL IkBa-CBG/CBR reporter, luminescence ratio (green luciferase fused to IkBa over red control in TMD8 lymphoma cells), 4 h; activity change, negative = inhibition: at 46.1 µM (top of the series)
# Summary of the method: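 Concentration-response series (up to 46 uM) were applied to TMD8 dual-reporter cells for 4 h at 37C with doxycycline. Green/red ratio, after filter-overlap correction, defined %Activity; red signal alone was normalised to basal cells and zero luminescence.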
# Potency means the concentration at half of the fitted maximal effect.
Compound,Potency,"activity change, negative = inhibition"
CCC(=O)N1N=C(c2c(O)n(C)c(=O)n(C)c2=O)CC1c1ccccc1 (configuration not stated),"inconclusive: 22.4 µM [falling, single point]",
Fc1cccc(NC(=S)Nc2ccc(Br)cc2)c1,,inconclusive: -1.27%
COC(=O)C1=C(c2ccc(-c3ccccc3)c(F)c2)C[C@@H]2CC[C@H]1N2C(=O)NCC1CC1,,inconclusive: -5.61%
C/C(=N/OC(=O)N(C)C)c1ncc(C(F)(F)F)cc1N1CCOCC1,,inconclusive: 4.72%
COc1cc(OC)c(OC)cc1/C=C1\C(=O)NC(=O)N(Cc2ccccc2)C1=O,,inactive
O=[N+]([O-])c1cc(S(=O)(=O)c2ccc(O)c([N+](=O)[O-])c2)ccc1O,,inconclusive: -0.734%
Cc1ncc(CN2CCCC(C(=O)c3sccc3C)C2)s1 (configuration not stated),"inconclusive: 0.0891 µM [falling, full curve, poor fit]",
CCC1(CC)C(=N)N(C)C(=O)NC1=O,,inactive
CCC(=O)c1cn(Cc2ccc(C#N)cc2)c2ccccc12,,inconclusive: -18.8%
Oc1csc(Cc2nc(-c3ccc4ccccc4c3)cs2)n1,,inconclusive: 5.93%
Cc1ccc(-n2c(/C=C/c3ccc(Br)s3)nc3ccccc3c2=O)cc1,,inconclusive: 20.6%
c1ccc(-c2ccc(-c3n(-c4ccccn4)c4ccccc4[n+]3-c3ccccn3)cc2)cc1,,inconclusive: 0.847%
O=C(CSCc1ccccc1Cl)Nc1ccc2c(c1)OCCO2,,inconclusive: -2.45%
COc1ccc(C=C2C(=O)N(C)C(=O)N(C)C2=O)cc1CSc1ccccn1,,inactive
CC(C)c1ccc(N2C(=O)NC(=O)/C(=C\c3cnc(-c4ccccc4)nc3)C2=O)cc1,,inactive
Cc1nn(Cc2ccccc2Cl)c(Cl)c1C(=O)OCC(=O)NC(=O)NC1CCCCC1,,inactive
Nc1ccccc1C(=O)OCCOc1ccccc1,"inconclusive: 0.058 µM [rising, full curve, poor fit]",
O=C(Nc1ncc2c(n1)-c1ccccc1CC2)c1ccccc1,"inconclusive: 22.4 µM [falling, partial curve]",
C[C@]12CC[C@@H]3c4ccc(O)c(O)c4CC[C@H]3[C@@H]1CC[C@@H]2O,"inconclusive: 35.5 µM [falling, single point]",
Clc1ccc(C(Cn2ccnc2)OCc2csc3c(Cl)cccc23)c(Cl)c1 (configuration not stated),,inconclusive: 2.16%
COC(=O)C1=C(c2ccc(OC)c(OC)c2)C[C@@H]2CC[C@H]1N2C(=O)N1CCOCC1,,inconclusive: -1.87%
CCCCc1nc2ccccc2c(=O)n1-c1ccccc1[N+](=O)[O-],,inactive
CCCCCCNc1nc(OC)nc(N2CC3CC(C2)c2cccc(=O)n2C3)n1 (configuration not stated),,inconclusive: 4.02%
CCC(CC)NCc1c[nH]c2ccccc12,,inactive
CC(=NCCO)c1c(O)n(C)c(=O)n(C)c1=O,,inactive
Cn1c(O)c(/C=N/N2CCCCC2)c(=O)[nH]c1=O,,inconclusive: -6.21%

Compound,Potency,"activity change, negative = inhibition"
COc1ccc(C2=Nn3c(nnc3-c3ccccn3)SC2)cc1,"inconclusive: 17.8 µM [falling, partial curve]",
CCCCn1c(O)c(C(=O)/C=C/c2ccc3c(c2)OCO3)c(=O)[nH]c1=O,"inconclusive: 14.1 µM [falling, partial curve]",
Cc1ccc(/C(N)=N/OC(=O)CCC2CCCCC2)cc1,,inconclusive: 10.4%
CC(=NCCCn1ccnc1)c1c(O)n(-c2ccccc2)c(=O)[nH]c1=O,,inactive
CC(C)CCn1c(N)c(C(=O)OCC2CCCO2)c2nc3ccccc3nc21 (configuration not stated),,inconclusive: 0.278%
O=c1[nH]c(=O)n(-c2cccc3ccccc23)c(O)c1C=NCc1ccc2c(c1)OCO2,"inconclusive: 4.11 µM [falling, partial curve]",
O=C(c1cc(-c2ccc(O)cc2)on1)N1CCc2ccccc2C1,"inconclusive: 22.4 µM [falling, partial curve]",
Cc1ccc(OC(F)F)c(N2C(=O)C3C4CCC(O4)C3C2=O)c1 (configuration not stated),,inconclusive: -3.44%
COc1ccc(C(=O)C2CCCN(Cc3cnc(C)s3)C2)cc1OC (configuration not stated),,inconclusive: 1.98%
CC1CCCCN1CC(=O)c1ccc2cc[nH]c2c1 (configuration not stated),"inconclusive: 29.1 µM [falling, single point]",
CC(=O)O[C@H]1C(=O)[C@@]2(C)C([C@H](OC(=O)c3ccccc3)[C@]3(O)C[C@H](O)C(C)=C1C3(C)C)[C@]1(OC(C)=O)CO[C@@H]1C[C@H]2O (some centres not stated),,inconclusive: -4.14%
Cc1cccc(NC(=O)c2ccc([N+](=O)[O-])o2)c1,,inconclusive: -17%
O=C1/C(=C/c2ccc3c(c2)OCO3)N2CCC1CC2,,inconclusive: -52.2%
CCC(=NCc1ccco1)c1c(O)n(C)c(=O)n(C)c1=O,,inconclusive: 12.6%
COc1ccc(/C=N/N=C(/N)N[N+](=O)[O-])c(OC)c1,,inconclusive: -15.3%
C1CC2NCCC3NCCC(N1)N32 (configuration not stated),,inactive
N#CC1=C(N)Oc2c(c(=O)oc3ccccc23)C1c1ccccc1OC(=O)c1cccs1 (configuration not stated),"inconclusive: 2.31 µM [falling, full curve]",
COc1ccc(CCNCc2ccccc2)cc1,,inconclusive: -13.8%
COC(=O)C1=C(c2ccc(OC)c(OC)c2)C[C@@H]2CC[C@H]1N2C(=O)NC1Cc2ccccc2C1,,inconclusive: 11.3%
C[C@@H]1O[C@@H](O[C@@H]2C=C3CC[C@@H]4C(CC[C@]5(C)[C@@H](c6ccc(=O)oc6)CC[C@]45O)[C@@]3(C)CC2)[C@H](O)[C@H](O)[C@H]1O (some centres not stated),,inconclusive: 12.7%
Cc1ccc(-n2c(/C=C\c3ccc(F)cc3)nc3ccccc3c2=O)cc1Cl,,inactive
CC(=O)OC1N=C(c2ccccc2Cl)c2cc(Br)ccc2N(C)C1=O (configuration not stated),,inactive
O=C(NCCN1CCOCC1)c1ccc(Cl)nc1,,inconclusive: 3.93%
COc1ccc(C(c2ccc(OC)cc2)C(Cl)(Cl)Cl)cc1,"inconclusive: 13 µM [rising, partial curve, poor fit]",
CC(C)c1oc(=O)cc2c1[C@@H](O)[C@H]1OC(=O)[C@@]3(C)CC[C@@H](O)[C@@]2(C)C13 (some centres not stated),"inconclusive: 8.2 µM [cytotoxic, partial curve, poor fit]",
Cc1cccc(-n2c(O)c(/C=N/Nc3nc4c(c(=O)n(C)c(=O)n4C)n3C)c(=O)[nH]c2=S)c1,"inconclusive: 0.58 µM [rising, partial curve]",

# Copied from the list.
# In activity change, negative = inhibition, Cc1ccc(-n2c(/C=C\c3ccc(F)cc3)nc3ccccc3c2=O)cc1Cl is entered as inactive
# In activity change, negative = inhibition, Cc1ccc(/C(N)=N/OC(=O)CCC2CCCCC2)cc1 is entered as inconclusive: 10.4%

# Following part:

Compound,Potency,"activity change, negative = inhibition"
COC(=O)C1=C(c2cccc(OCc3ccccc3)c2)C[C@@H]2CC[C@H]1N2C(=O)NCCOc1ccc(OC)cc1,,inconclusive: -19.9%
O=c1c2ccccc2nc(/C=C/c2ccc(F)cc2)n1-c1ccccn1,,inconclusive: 1.62%
O=c1c2ccccc2nc(-c2ccccc2)n1-c1ccncc1,,inconclusive: 29.5%
Cc1ccc(-c2c[n+](CC(=O)c3ccc(Br)cc3)c3n2CCCCC3)cc1,,inconclusive: 15.1%
CCC(=Nc1ccccc1NC(C)=O)c1c(O)n(C)c(=O)n(C)c1=O,,inconclusive: 5.78%
Cc1nn(Cc2ccccc2)c(Cl)c1C(=O)NC1CCCc2ccccc21 (configuration not stated),,inactive
CN(C)C(=O)O/N=C(\N)COc1ccc(C(C)(C)C)cc1,,inconclusive: 20.2%
COc1ccc(CC(=O)Nc2ccc(C#N)c(Cl)c2)cc1S(=O)(=O)N1CCOCC1,,inactive
O=C1NC(=O)N(Cc2ccco2)C(=O)/C1=C/c1cccn1CCOc1ccccc1Cl,,inconclusive: -29.1%
O=c1[nH]c(O)c(/C=C2/C=CC(c3cc(Cl)ccc3Cl)=N2)c(=O)[nH]1,,inactive
FC(F)(F)c1ccc(NC2=NCCCS2)cc1,,inactive
COC(=O)C1=C(c2ccc(F)cc2OCc2ccccc2)C[C@@H]2CC[C@H]1N2C,,inconclusive: -14.1%
COC(=O)C1=C(c2cccc3c2S(=O)(=O)c2ccccc2-3)C[C@@H]2CC[C@H]1N2C(=O)N1CCc2cc(OC)c(OC)cc2C1,,inconclusive: -13.7%
Cc1cc(/C=C2\C(=O)NC(=O)N(c3cccc(F)c3)C2=O)c(C)n1-c1cc(C(=O)O)cc(C(=O)O)c1,,inconclusive: -18.9%
O=Cc1cn(Cc2ccccc2F)c2ccccc12,"inconclusive: 0.631 µM [falling, partial curve, poor fit]",
CC(=O)OC1N=C(c2ccccc2)c2ccccc2NC1=O (configuration not stated),,inactive
N#CC1(c2ccccc2)CCN(C2CC(=O)N(c3ccc(F)cc3)C2=O)CC1 (configuration not stated),,inconclusive: 0.152%
Cc1cccc(Cn2cccc(C(=O)Nc3ccc4c(c3)OCCO4)c2=O)c1,"inconclusive: 12.6 µM [rising, partial curve, poor fit]",
O=C(c1ccc(Cl)cc1)C12CN3CN(CN(C3)C1)C2,,inconclusive: 5.61%
Cc1ccccc1N1C(=O)NC(=O)/C(=C\c2cc(Br)c(N3CCOCC3)o2)C1=O,,inconclusive: -13.4%
O=C(C1=C[C@@H](C2CCCCC2)C[C@@H](OCc2ccc(CO)cc2)O1)N1CCN(Cc2ccc3c(c2)OCO3)CC1,,inconclusive: -0.419%
Fc1ccccc1CNCCc1c[nH]c2ccccc12,,inactive
COC(=O)C1=C(c2ccc(F)cc2OCc2ccccc2)C[C@@H]2CC[C@H]1N2C(=O)NCCOc1ccccc1,,inconclusive: -1.23%
O=C(Nc1ccccc1F)Oc1cccc(OC(=O)Nc2ccccc2F)c1,"inconclusive: 11.2 µM [falling, partial curve]",
CC(=O)[C@H]1CC[C@H]2[C@@H]3CC[C@H]4C[C@H](O)CC[C@]4(C)[C@H]3C(=O)C[C@]12C,,inconclusive: -0.0805%

# Part of the list above, reformatted.
Compound	Potency	activity change, negative = inhibition
FC(F)(F)c1ccc(NC2=NCCCS2)cc1		inactive
COC(=O)C1=C(c2ccc(F)cc2OCc2ccccc2)C[C@@H]2CC[C@H]1N2C		inconclusive: -14.1%
